PubChem BioAssay AID720505, Drosophila RNAi Screening Center | 2013
The deposit covers about 20,000 reagents; shown is a random part of those with a known target gene and a result. Over the whole deposit, about 2,100 (10%) were called active. 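Raw plate signals without normalisation; calls rest on control-based scores that were not deposited; replicate 2 separates called from uncalled poorly.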 Not stated in the record: the amount of reagent, the time to read-out.

Aim: 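Knock-downs that reduce calcium influx once internal stores are emptied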 (primary screen)
Cell system: Drosophila S2R+ cells
Knock-down reagent: long dsRNA against Drosophila genes
Treatment: thapsigargin (2 µM) in calcium-free buffer to empty internal stores, then 2 mM calcium added back
Measurement: 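Fluo-4 signal in 384-well plates read on a FLIPR after thapsigargin (2 µM, calcium-free) store depletion and 2 mM calcium add-back; unnormalised mean endpoint per well; screen run twice, selected wells retested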
Reading the numbers: calcium signal and retest calcium signal: higher = more calcium entry after store depletion
Rule for the call: 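Knock-downs counted as hits when calcium entry dropped relative to STIM1 positive and Rho1 negative controls present on each plate; roughly 1500 genes called, with reductions of differing size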
Meaning of the calls: active = called as lowering calcium entry; inactive = not called

Coa7 (Cytochrome c oxidase assembly factor 7) [DRSC20967] gave calcium signal, replicate 1 = 206; calcium signal, replicate 2 = 99.1; inactive. Silencing of Arpc4 (Actin-related protein 2/3 complex, subunit 4) [DRSC02917] gave: calcium signal, replicate 1 = 139; calcium signal, replicate 2 = 107; inactive. For Orai [DRSC05684], the entry reads calcium signal, replicate 1 = 109; calcium signal, replicate 2 = 106; inactive. After knock-down of Orai [DRSC22061], the screen gave calcium signal, replicate 1 = 35.3; calcium signal, replicate 2 = 23.3; active. Knock-down of blw (bellwether) [DRSC04675] gave: calcium signal, replicate 1 = 81.9; calcium signal, replicate 2 = 136; inactive. For Hen1 (Hen1 methyltransferase) [DRSC06139], the entry reads calcium signal, replicate 1 = 153; calcium signal, replicate 2 = 132; inactive.

For Hen1 (Hen1 methyltransferase) [DRSC06140] the deposit lists calcium signal, replicate 1 = 84.5; calcium signal, replicate 2 = 113; inactive. CG13727 [DRSC10055] showed calcium signal, replicate 1 = 98.1; calcium signal, replicate 2 = 110; inactive. With knock-down of CG6985 [DRSC16164], the record shows calcium signal, replicate 1 = 145; calcium signal, replicate 2 = 278; inactive. Npc2c (Niemann-Pick type C-2c) [DRSC15523] gave calcium signal, replicate 1 = 125; calcium signal, replicate 2 = 85.7; inactive. CG4374 [DRSC15570] gave calcium signal, replicate 1 = 255; calcium signal, replicate 2 = 112; inactive. For CG15252 [DRSC17981], the values are calcium signal, replicate 1 = 121; calcium signal, replicate 2 = 108; inactive.

Knock-down of pths (porthos) [DRSC03171] gave: calcium signal, replicate 1 = 152; calcium signal, replicate 2 = 90.2; inactive.

Reformatted: entries from further up.
gene	dsRNA	calcium signal, replicate 1	calcium signal, replicate 2	retest calcium signal, replicate 1	retest calcium signal, replicate 2	call
CG6985	DRSC16164	145	278			inactive
Npc2c (Niemann-Pick type C-2c)	DRSC15523	125	85.7			inactive
CG4374	DRSC15570	255	112			inactive

The results go on:
With knock-down of CG13083 [DRSC02187], the screen gave calcium signal, replicate 1 = 161; calcium signal, replicate 2 = 76.9; inactive. CG15696 [DRSC15118] showed calcium signal, replicate 1 = 254; calcium signal, replicate 2 = 118; inactive. Against Irk2 (Inwardly rectifying potassium channel 2) [DRSC15569], the entry reads calcium signal, replicate 1 = 183; calcium signal, replicate 2 = 181; inactive. Against CG7655 [DRSC16275] the deposit lists calcium signal, replicate 1 = 193; calcium signal, replicate 2 = 291; inactive. After knock-down of CG16995 [DRSC00480], the record shows calcium signal, replicate 1 = 154; calcium signal, replicate 2 = 147; inactive. With knock-down of MSBP (membrane steroid binding protein) [DRSC20146] the results were calcium signal, replicate 1 = 161; calcium signal, replicate 2 = 100; inactive.

Against stmA (stambha A) [DRSC05120], the entry reads calcium signal, replicate 1 = 56; calcium signal, replicate 2 = 60.8; active. For stmA (stambha A) [DRSC07593], the entry reads calcium signal, replicate 1 = 158; calcium signal, replicate 2 = 142; inactive. Knock-down of stmA (stambha A) [DRSC22179] came out at: calcium signal, replicate 1 = 108; calcium signal, replicate 2 = 237; inactive. For CG5225 [DRSC15742], the values are calcium signal, replicate 1 = 113; calcium signal, replicate 2 = 297; inactive. For wuho [DRSC18101] the deposit lists calcium signal, replicate 1 = 170; calcium signal, replicate 2 = 119; inactive. Depletion of CG15464 (retired record) [DRSC18047] resulted in: calcium signal, replicate 1 = 260; calcium signal, replicate 2 = 82; retest calcium signal, replicate 1 = 10015; retest calcium signal, replicate 2 = 157; inactive.

Against CG15464 (retired record) [DRSC22086] the deposit lists calcium signal, replicate 1 = 89.7; calcium signal, replicate 2 = 215; inactive. After knock-down of Ugt37C2 (UDP-glycosyltransferase family 37 member C2) [DRSC02247], the record shows calcium signal, replicate 1 = 121; calcium signal, replicate 2 = 93.9; inactive. For Vps4 (Vacuolar protein sorting 4) [DRSC19338], the values are calcium signal, replicate 1 = 144; calcium signal, replicate 2 = 115; inactive.
